# According to the supplement of paper PMC3334620:
# In all, about 33,000 sequences were measured (“E-score (-0.5 to 0.5)”: median about -0.016, highest 2% from about 0.3 on). The list shows a part of the results.
# Target: T1, Yer184c (UniProt P39961)
# T1 sequence: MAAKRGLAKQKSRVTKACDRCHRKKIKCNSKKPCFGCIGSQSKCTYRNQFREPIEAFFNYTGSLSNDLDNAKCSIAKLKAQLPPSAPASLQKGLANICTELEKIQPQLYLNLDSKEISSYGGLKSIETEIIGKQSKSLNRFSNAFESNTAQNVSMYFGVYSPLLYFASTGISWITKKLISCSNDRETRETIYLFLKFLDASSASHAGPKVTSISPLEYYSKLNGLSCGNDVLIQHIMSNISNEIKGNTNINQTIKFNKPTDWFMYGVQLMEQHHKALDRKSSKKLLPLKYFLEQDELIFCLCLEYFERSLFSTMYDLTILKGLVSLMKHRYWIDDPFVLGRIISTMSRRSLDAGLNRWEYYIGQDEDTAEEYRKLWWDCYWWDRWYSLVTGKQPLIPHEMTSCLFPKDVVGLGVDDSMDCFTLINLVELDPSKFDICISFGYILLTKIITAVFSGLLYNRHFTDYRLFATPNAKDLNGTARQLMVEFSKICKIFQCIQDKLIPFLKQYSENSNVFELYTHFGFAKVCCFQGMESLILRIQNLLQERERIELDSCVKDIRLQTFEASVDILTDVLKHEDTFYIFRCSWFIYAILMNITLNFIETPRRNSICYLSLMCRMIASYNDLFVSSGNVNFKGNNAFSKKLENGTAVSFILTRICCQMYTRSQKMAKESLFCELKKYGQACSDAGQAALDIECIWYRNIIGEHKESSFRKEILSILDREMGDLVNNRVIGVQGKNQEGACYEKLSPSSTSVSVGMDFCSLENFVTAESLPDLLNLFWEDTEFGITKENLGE
# Assay: PBM E-score (8-mer binding enrichment) (E-score (-0.5 to 0.5)); higher = stronger / more preferred TF binding
# Details: protein concentration: 100 nM; construct: GST-full length
# Outline: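 For each ungapped eight-base word taken together with its reverse complement, the Universal PBM Analysis Suite assigned an E-score. Binding data came from GST-tagged yeast transcription factors, applied at about 100-200 nM, on universal all-10-mer Agilent arrays made double-stranded by primer extension. Fluorescent anti-GST marked bound protein, and scans were normalised with masliner.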
row,Sequence,PBM E-score
1,AAATAAGA,0.154
2,ATCGTAAG,-0.143
3,CCCGCGAA,-0.0181
4,ACTGCCGC,0.214
5,AGTAAAAC,-0.0175
6,CGTGCATC,-0.225
7,GAAGATCC,0.0722
8,CAGCTAGA,-0.109
9,AACGTTTG,-0.0728
10,CATAGAAC,-0.208
11,AGATAACA,0.0929
12,GTGCTCTA,-0.102
13,ATGCAGAC,-0.0797
14,TCAGGCAA,-0.158
15,CCCATGAA,-0.132
16,CTTCCAAA,0.0435
17,CGGAGCTC,0.104
18,CCTTTTAC,0.0344
19,AACAAATG,-0.0255
20,ACTTAGAT,0.109
21,GGACATAC,0.12
22,ATCATATG,0.147

row,Sequence,PBM E-score
1,AAGTCTGG,-0.131
2,CAGCAGCA,-0.147
3,AGTCTGCA,-0.197
4,GATAACGA,-0.0402
5,GACTCGCA,-0.108
6,ATGTAGAG,-0.0432
7,ATCCATCG,-0.124
8,CCCTCTAG,-0.336
9,CACAATGA,-0.0364
10,CAAAATTG,-0.0804
11,CCCTCTGC,-0.376
12,CCGATACA,0.168
13,AATGGCGG,0.013
14,CTCAAACC,-0.0293
15,ATGCTGCG,-0.277
16,CGAGGGAG,-0.164
17,CACAGTAG,0.0246
18,CCATCTTA,0.0202
19,GTACAGAC,0.0782
20,ACTAGTTG,-0.244
21,AATCGGTC,0.147
22,ATAAAACA,0.0824

# Another view of part of the listing above.
row | Sequence | PBM E-score
4 | GATAACGA | -0.0402
5 | GACTCGCA | -0.108
6 | ATGTAGAG | -0.0432
7 | ATCCATCG | -0.124
8 | CCCTCTAG | -0.336
9 | CACAATGA | -0.0364

# Continuation:

row,Sequence,PBM E-score
1,CGCCACAC,-0.2
2,ACCTCGTA,-0.0386
3,CCATAGCA,-0.25
4,AACCCGGC,0.329
5,AGTCGGGA,0.0709
6,GACTGCGC,-0.163
7,TAGGGGCA,-0.357
8,GCTCTTCA,-0.187
9,CGGATGAA,0.351
10,CTTTAAAC,-0.052
11,CATACTCA,-0.0092
12,GGCTGACC,-0.236
13,ATAGGCGA,-0.0581
14,GATAACCA,-0.044
15,AACAATCG,0.0627
16,CGGTCTAC,0.0119
17,CGTTAGTA,0.0541
18,ACTGGGGC,-0.18
19,CGACGAGC,-0.0899
20,CCTTAAGC,-0.0568
21,TCGGAGAA,0.237
22,AGGACATG,-0.173

row,Sequence,PBM E-score
1,TCGAGCAA,0.171
2,CCCCTAGC,-0.37
3,GGCACGCA,-0.142
4,ACAGTAAC,-0.0119
5,ACGCGGGG,0.0659
6,CACTGCTA,-0.0956
7,CGTCCGAG,0.16
8,AACTAGTG,-0.0163
9,AGTCGGGG,-0.204
10,CAATCCTA,-0.0715
11,AGACCTAG,-0.0887
12,ACTAAGTA,0.0167
13,AAGGGCGC,-0.00573
14,CCGGCCAC,0.24
15,AGGTATGC,-0.0367
16,CATCTACC,0.0432
17,ATAGTGCG,0.0164
18,AACACGGA,0.298
19,CGGACTTA,0.193
20,GACAGGTC,-0.235
